Data as given in PMC7819943, “Rice protein-binding microarrays: a tool to detect cis-acting elements near promoter regions in rice”.
This is one part of the list.

What follows are sequences tested against T1, OsSMF1 (Oryza sativa, UniProt Q6ZLB0 1-436) (assay: protein-binding microarray (RPBM); PBS, 2% BSA, 51.3 ng/ul salmon testes DNA, 50 uM zinc acetate, 200 nM TF, 25 C, 1 h; high values mean tight binding). Details: protein: recombinant; tags: N-terminal polyhistidine and DsRed monomer fusion (pET32a); chain copies: 2; label: CyDye5-dUTP incorporated in the synthesized complementary strand; 3' TTTTT single-stranded linker to array surface; dsDNA, one strand shown.
T1 sequence: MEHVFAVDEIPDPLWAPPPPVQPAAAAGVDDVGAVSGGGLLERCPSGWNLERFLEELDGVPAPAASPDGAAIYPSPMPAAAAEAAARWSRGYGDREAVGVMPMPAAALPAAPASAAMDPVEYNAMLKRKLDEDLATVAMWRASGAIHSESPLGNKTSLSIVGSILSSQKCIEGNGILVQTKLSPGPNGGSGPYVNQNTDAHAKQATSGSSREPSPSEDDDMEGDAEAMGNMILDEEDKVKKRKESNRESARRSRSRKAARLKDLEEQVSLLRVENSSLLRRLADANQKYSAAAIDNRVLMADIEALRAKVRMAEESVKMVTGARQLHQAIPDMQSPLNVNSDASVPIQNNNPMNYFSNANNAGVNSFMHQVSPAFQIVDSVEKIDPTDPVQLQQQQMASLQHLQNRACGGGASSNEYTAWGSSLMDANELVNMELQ
How it was run: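 Binding signal is defined as the fluorescence intensity of each feature in arbitrary units, read on an Axon 4000B scanner. Transcription factors with N-terminal polyhistidine and DsRed fusions came from E. coli BL21-CodonPlus and were purified on Ni–NTA. They were incubated at 200 nM for 1 h at 25 °C on a custom Agilent array that had been made double-stranded with Cy5-dUTP, with 50 µM zinc acetate present, and the array was washed.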

| Sequence | binding signal |
| --- | --- |
| CAAATTAACTACGTAGTAGTGCCACGTCAGCCTAAAATCGCGGAGTCACCTAGTGCAG | 33300 fluorescence intensity (a.u.) |
| GATCCAACCATCCACGTGGCCCTGTGTGCCGACCCTTCCACGGAGTCACCTAGTGCAG | 14700 fluorescence intensity (a.u.) |
| CCCAACCGCCGTCCACCACCTCCAAACTCCAAAGCCCTTTCGGAGTCACCTAGTGCAG | 3800 fluorescence intensity (a.u.) |
| ACCACTACGCCTCCACCTCCACACCTCACCTCCTCCACCTCGGAGTCACCTAGTGCAG | 3840 fluorescence intensity (a.u.) |
| GGGGCCCACATGTCATTCTCACCGACGCCCCATCCCTTCTCGGAGTCACCTAGTGCAG | 3530 fluorescence intensity (a.u.) |
| GGGGAAAGAGAGAGGGTGATGACGTGAACACCTTGACACACGGAGTCACCTAGTGCAG | 4870 fluorescence intensity (a.u.) |
| TGGACCGGGTCAATTTGCCACATCATTAAACTAATCATCCCGGAGTCACCTAGTGCAG | 9940 fluorescence intensity (a.u.) |
| ATAGTTCCAAACCAGCTGAGCTCAGCCTTGTACACTGAACCGGAGTCACCTAGTGCAG | 3610 fluorescence intensity (a.u.) |
| AGGCGATAAACCCAACATACTCCAACATCACAGCCACACCCGGAGTCACCTAGTGCAG | 17300 fluorescence intensity (a.u.) |
| GAAATTCTCGTAATTATGAATCATCCCGTACTATTCGCAGCGGAGTCACCTAGTGCAG | 3780 fluorescence intensity (a.u.) |
| TGTTCATCCGTCGTCAGACCTGTTACCAGATCTGGACTTCCGGAGTCACCTAGTGCAG | 4620 fluorescence intensity (a.u.) |
| CGTTGTCGCCACCACCACCGCCGCCGTCGCCACAACTCCGCGGAGTCACCTAGTGCAG | 3220 fluorescence intensity (a.u.) |
| CCGTCCAAAACTACCCATCTGCCACGTGGCACCCGCCCATCGGAGTCACCTAGTGCAG | 29800 fluorescence intensity (a.u.) |
| GGCGCCACGCTCCTCCTCCTCGACGTGCCCCAGCGCACCCCGGAGTCACCTAGTGCAG | 3540 fluorescence intensity (a.u.) |
| CCGGTGCCGTCGTGTCGTTCGCCGTCTGCAAGCACATAGTCGGAGTCACCTAGTGCAG | 4940 fluorescence intensity (a.u.) |
| CGACCACATCGGATGTGGATTAATATATTCCTCGAGGGACCGGAGTCACCTAGTGCAG | 19800 fluorescence intensity (a.u.) |
| CCCGGCAGCCGCAGGCGACTCTGTCTCCGCGCGCTCGAGCCGGAGTCACCTAGTGCAG | 26400 fluorescence intensity (a.u.) |
| CGGGGCGGCCGCAGCCGCCGTCGCCGTCGCCGTCGCCATTCGGAGTCACCTAGTGCAG | 3140 fluorescence intensity (a.u.) |
| CGATTAATGTGGGAATTTCTAGCCCTCACAACGAACGTGGCGGAGTCACCTAGTGCAG | 3160 fluorescence intensity (a.u.) |
| TTATGTAATTAACTTAAATACAAATTTCCTGTAATAGTTGCGGAGTCACCTAGTGCAG | 4420 fluorescence intensity (a.u.) |
| AGGTCTGGTTAGTGTTACAATAGAGGCGTGGAGCATAAACCGGAGTCACCTAGTGCAG | 24600 fluorescence intensity (a.u.) |
| GATTAAACAGCAAGTAGTGTACTAGTGTCACTTTTCCTTGCGGAGTCACCTAGTGCAG | 3660 fluorescence intensity (a.u.) |
| GCCGAACAGATAAAGGCCACGTCTTTTCTTTTGCTTTCTCCGGAGTCACCTAGTGCAG | 4290 fluorescence intensity (a.u.) |
| CTTGGTGTCGACATCACCCGTTCGAGTCACTGGTGATGCACGGAGTCACCTAGTGCAG | 5320 fluorescence intensity (a.u.) |
| GCAACAGAAAGAGAATCACCACGGGACAAAGGCGGTGACGCGGAGTCACCTAGTGCAG | 4200 fluorescence intensity (a.u.) |
| ACGCGCGGGCGTGGCTGACGTGGCCCGGAGAAGGCGGAGGCGGAGTCACCTAGTGCAG | 5770 fluorescence intensity (a.u.) |
| ATACCTGTCTGCCCAAAAGTTGCAGGTGACGATGGTGCAACGGAGTCACCTAGTGCAG | 3290 fluorescence intensity (a.u.) |

| Sequence | binding signal |
| --- | --- |
| CGGCGCTGACACCGCCGCCGCCACCGCCATCTCCGGCGAACGGAGTCACCTAGTGCAG | 3270 fluorescence intensity (a.u.) |
| TCGCATCCACACCTGTTTCCATCGTCCGTCACCACGTGCACGGAGTCACCTAGTGCAG | 5800 fluorescence intensity (a.u.) |
| GTTGTATTCAACGACCAGTGGCGTCCCTGTGCCGGACCTTCGGAGTCACCTAGTGCAG | 3200 fluorescence intensity (a.u.) |
| GTCAACAAAGCTCACCCACGTACATATGTAGTGGCATTTCCGGAGTCACCTAGTGCAG | 5910 fluorescence intensity (a.u.) |
| GGATCTGGAAGAGTGGAAGGACGATGACTCAGGCGACCATCGGAGTCACCTAGTGCAG | 6730 fluorescence intensity (a.u.) |
| ACACATGCATCAAGTAGAGGATACGGGGATTACACGTGGACGGAGTCACCTAGTGCAG | 8700 fluorescence intensity (a.u.) |
| GGCATCCTCTATCCCGTCGCCACGTCCTCCGCCGCGGCGGCGGAGTCACCTAGTGCAG | 7540 fluorescence intensity (a.u.) |
| TTGCTGAATATATGAGTGCGATGCTACGTGTATATTGATGCGGAGTCACCTAGTGCAG | 5560 fluorescence intensity (a.u.) |
| ATACACGGCGACGCCCAAGGGCTTATCAAACTCTATCCACCGGAGTCACCTAGTGCAG | 3190 fluorescence intensity (a.u.) |
| CACCAGCCGCAGCGTCAGCCTCCGCCTCCACCTACGTCGCCGGAGTCACCTAGTGCAG | 5010 fluorescence intensity (a.u.) |
| TGTTGTAAGATAGTCTCTGAAAGCCTCTACCAGATTCCACCGGAGTCACCTAGTGCAG | 28700 fluorescence intensity (a.u.) |
| ACGCACCTCCTCCCGCCTCGTCGTGGCGGCTCATTTAATCCGGAGTCACCTAGTGCAG | 4620 fluorescence intensity (a.u.) |
| GGTTAATTTCTAGGGTATGGTGATGGTAATGTTGCGGCGACGGAGTCACCTAGTGCAG | 3280 fluorescence intensity (a.u.) |
| CGCCGTACTCGGTACTCCATCAGCCTACTCAGCGTCACCTCGGAGTCACCTAGTGCAG | 5680 fluorescence intensity (a.u.) |
| ATCAAGATAGTTCGGCCCATCCTAGCTTTTAGTCCATCACCGGAGTCACCTAGTGCAG | 28900 fluorescence intensity (a.u.) |
| GCCGCCGTGGCCGTGGCCGTGGCCGCCGCCGTGGCGAGGCCGGAGTCACCTAGTGCAG | 4360 fluorescence intensity (a.u.) |
| TGGGCCGTGATTGAGGCCTATATATACGTGGCCTGACAAACGGAGTCACCTAGTGCAG | 4000 fluorescence intensity (a.u.) |
| TCCGCCGGAAACCACCGCCACGTTCTGCCCCGAGATGGGTCGGAGTCACCTAGTGCAG | 3590 fluorescence intensity (a.u.) |
| ATCGAGCAGCTTGCATCGTATGACTGTAGAGATGATTCAGCGGAGTCACCTAGTGCAG | 3670 fluorescence intensity (a.u.) |
| TGCTCAGCCAATGTTCCCAGTCGGCCGGCCACGGAGGCGGCGGAGTCACCTAGTGCAG | 3410 fluorescence intensity (a.u.) |
| ACATTCCCTTGTTGTTTCCTTGTCATCTAAATTGTTATAACGGAGTCACCTAGTGCAG | 4120 fluorescence intensity (a.u.) |
| TTCCAATGGCAAGACAGTGAGATAACCATTATCCACATCACGGAGTCACCTAGTGCAG | 4190 fluorescence intensity (a.u.) |
| GTTCAGCTGAGCCTGGTGAACTAGAAAAGTTCCAACAGCGCGGAGTCACCTAGTGCAG | 4470 fluorescence intensity (a.u.) |
| CATCGCGTTGTAACTTGTAAGACGTGTATACTCTTGTTACCGGAGTCACCTAGTGCAG | 3650 fluorescence intensity (a.u.) |
| TGGCTTGTTGCAAGTTTACAAAGAGTACGTGTTCACTTGACGGAGTCACCTAGTGCAG | 3310 fluorescence intensity (a.u.) |
| CATTCCCTCCTCCTCCTCCTCCTCCTCCTGAATCCCTCCTCGGAGTCACCTAGTGCAG | 3380 fluorescence intensity (a.u.) |
| ATATAACCATGGTGGTGGTTGGTGGTAGACTCACCGCCACCGGAGTCACCTAGTGCAG | 3160 fluorescence intensity (a.u.) |

Copied from the results shown for reference:

| Sequence | binding signal |
| --- | --- |
| ATACCTGTCTGCCCAAAAGTTGCAGGTGACGATGGTGCAACGGAGTCACCTAGTGCAG | 3290 fluorescence intensity (a.u.) |
| CGGCGCTGACACCGCCGCCGCCACCGCCATCTCCGGCGAACGGAGTCACCTAGTGCAG | 3270 fluorescence intensity (a.u.) |
| TCGCATCCACACCTGTTTCCATCGTCCGTCACCACGTGCACGGAGTCACCTAGTGCAG | 5800 fluorescence intensity (a.u.) |
| GTTGTATTCAACGACCAGTGGCGTCCCTGTGCCGGACCTTCGGAGTCACCTAGTGCAG | 3200 fluorescence intensity (a.u.) |
| GTCAACAAAGCTCACCCACGTACATATGTAGTGGCATTTCCGGAGTCACCTAGTGCAG | 5910 fluorescence intensity (a.u.) |
| GGATCTGGAAGAGTGGAAGGACGATGACTCAGGCGACCATCGGAGTCACCTAGTGCAG | 6730 fluorescence intensity (a.u.) |
| ACACATGCATCAAGTAGAGGATACGGGGATTACACGTGGACGGAGTCACCTAGTGCAG | 8700 fluorescence intensity (a.u.) |
| GGCATCCTCTATCCCGTCGCCACGTCCTCCGCCGCGGCGGCGGAGTCACCTAGTGCAG | 7540 fluorescence intensity (a.u.) |
| TTGCTGAATATATGAGTGCGATGCTACGTGTATATTGATGCGGAGTCACCTAGTGCAG | 5560 fluorescence intensity (a.u.) |
| ATACACGGCGACGCCCAAGGGCTTATCAAACTCTATCCACCGGAGTCACCTAGTGCAG | 3190 fluorescence intensity (a.u.) |
| CACCAGCCGCAGCGTCAGCCTCCGCCTCCACCTACGTCGCCGGAGTCACCTAGTGCAG | 5010 fluorescence intensity (a.u.) |
